Measured values taken from PMC4742183.
No constants are given. Whether binding was seen depends on the method and setting. Binding seen in cells or lysates may run through a third protein. Some entries that bind do so weakly or less than the wild type. Blank lines part the entries; values can stand above or below the substance they belong to.

By UniProt entry, the sequences of proteins in these tests, tags left out.
UniProt P56693: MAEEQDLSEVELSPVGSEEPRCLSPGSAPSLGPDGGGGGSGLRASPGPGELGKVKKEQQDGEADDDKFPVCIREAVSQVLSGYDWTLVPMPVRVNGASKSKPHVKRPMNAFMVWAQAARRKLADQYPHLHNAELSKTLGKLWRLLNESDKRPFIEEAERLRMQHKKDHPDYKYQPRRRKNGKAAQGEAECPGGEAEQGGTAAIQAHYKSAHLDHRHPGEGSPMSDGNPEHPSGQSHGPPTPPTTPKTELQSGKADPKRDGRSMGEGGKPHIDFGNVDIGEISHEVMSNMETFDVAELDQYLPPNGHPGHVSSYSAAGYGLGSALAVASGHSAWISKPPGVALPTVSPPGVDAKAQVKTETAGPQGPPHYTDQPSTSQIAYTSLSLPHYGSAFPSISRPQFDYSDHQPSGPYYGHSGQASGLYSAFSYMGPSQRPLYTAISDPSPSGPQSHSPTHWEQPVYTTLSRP
UniProt Q969H0: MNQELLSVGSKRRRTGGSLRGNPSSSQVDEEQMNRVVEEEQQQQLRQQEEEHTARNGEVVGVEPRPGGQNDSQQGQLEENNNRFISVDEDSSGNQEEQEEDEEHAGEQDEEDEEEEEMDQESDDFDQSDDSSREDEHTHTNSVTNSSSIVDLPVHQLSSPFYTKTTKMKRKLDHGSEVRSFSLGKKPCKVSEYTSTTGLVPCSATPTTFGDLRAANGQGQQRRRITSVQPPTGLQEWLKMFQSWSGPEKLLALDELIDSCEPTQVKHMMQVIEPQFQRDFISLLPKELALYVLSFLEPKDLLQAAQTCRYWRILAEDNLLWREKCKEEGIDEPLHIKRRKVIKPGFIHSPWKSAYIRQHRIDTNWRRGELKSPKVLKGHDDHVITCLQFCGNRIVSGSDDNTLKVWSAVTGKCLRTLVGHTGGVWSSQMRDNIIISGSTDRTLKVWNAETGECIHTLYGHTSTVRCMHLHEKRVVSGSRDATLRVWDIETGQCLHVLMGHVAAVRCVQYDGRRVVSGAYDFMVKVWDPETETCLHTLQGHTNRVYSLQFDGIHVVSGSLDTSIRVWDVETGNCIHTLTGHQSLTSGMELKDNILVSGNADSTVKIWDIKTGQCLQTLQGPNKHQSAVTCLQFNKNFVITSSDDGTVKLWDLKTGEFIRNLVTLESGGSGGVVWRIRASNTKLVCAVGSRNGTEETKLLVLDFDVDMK
UniProt P49841: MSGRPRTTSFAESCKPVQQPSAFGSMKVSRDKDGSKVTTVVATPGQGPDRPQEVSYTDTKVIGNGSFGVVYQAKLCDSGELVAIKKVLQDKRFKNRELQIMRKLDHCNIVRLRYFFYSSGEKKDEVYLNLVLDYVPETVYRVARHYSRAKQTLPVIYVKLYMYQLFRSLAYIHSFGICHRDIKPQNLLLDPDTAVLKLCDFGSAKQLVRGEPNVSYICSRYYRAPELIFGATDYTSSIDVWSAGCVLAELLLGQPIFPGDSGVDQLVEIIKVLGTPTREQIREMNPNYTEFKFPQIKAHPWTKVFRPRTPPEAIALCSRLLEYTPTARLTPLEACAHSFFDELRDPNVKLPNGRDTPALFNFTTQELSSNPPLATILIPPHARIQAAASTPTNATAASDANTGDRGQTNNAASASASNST

Key:
[1] = molecular target: HA-tagged SOX10 (SRY-related HMG box-containing factor 10) (UniProt P56693); assay: co-IP; 293T cells co-transfected for 24 h, lysed in RIPA buffer (50 mM Tris-HCl pH 8.0, 100 mM NaCl, 0.5% Nonidet P-40, 5 mM EDTA, 2 mM DTT); anti-HA or anti-Myc agarose 2 h to overnight at 4°C, four washes with RIPA buffer; Western blot
Myc-tagged Fbxw7α = Myc-tagged Fbxw7α (UniProt Q969H0); assay: as above
[2] = molecular target: Fbxw7α, endogenous in MM200 melanoma cells (human (endogenous in MM200)) (UniProt Q969H0); assay: co-IP; endogenous proteins, MM200 melanoma cell lysate in RIPA buffer; anti-Fbxw7α or anti-SOX10 (IgG as control) 2 h at 4°C, then protein A/G-agarose; Western blot
[3] = molecular target: SOX10, endogenous in MM200 melanoma cells (human (endogenous in MM200)) (UniProt P56693); assay: as above

binding (Myc-tagged Fbxw7α): binds
Substance: HA-tagged SOX10 (SRY-related HMG box-containing factor 10) (from UniProt P56693 1-466)

binding [1]: binds
Substance: Myc-GSK3β (glycogen synthase kinase 3β) (from UniProt P49841 1-420) (enzyme)

binding [2]: binds
Substance: SOX10, endogenous in MM200 melanoma cells (from UniProt P56693 1-466)

More lines, now with the values behind:

Substance: Myc-tagged Fbxw7α (from UniProt Q969H0 1-707)
binding [1]: binds

Substance: Fbxw7α, endogenous in MM200 melanoma cells (from UniProt Q969H0 1-707)
binding [3]: binds
